To fix the notation:
B1: glmS ribozyme (parent)
chain: AUAAAAGCGCCAGAACUACAGAAAUGUAGUUGACGAGGAGGAGGUUUAUCGAAUUUUCGGCGGAUGCCUCCAAA

± gives the standard error. The uncertainty is large for many entries.

In this data set the parent is B1. As to the kind of experiment: self-cleavage kobs at 10000 uM GlcN6P; higher = faster cleavage; RNA array. The conditions noted are these: with glucosamine-6-phosphate. The method, boiled down:
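Sequenced MiSeq chips were the platform: E. coli RNA polymerase transcribed barcoded ribozyme variants on them in situ, and a hybridised Cy3 probe tracked these at 37 °C. After glucosamine-6-phosphate (40 μM to 10 mM) in HEPES/KCl/Mg(OAc)2 buffer was flowed in, tiles were imaged over ~14 h. Signals normalised to baseline and to non-cleaving reference variants were reduced to per-tile medians and fit to one- or two-exponential decays to obtain kobs. kcat and KM were derived through weighted Michaelis–Menten fits across concentrations.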
U47G C58A G59A C70A: the “self-cleavage kobs at 10000 uM GlcN6P” value turned out to be 3.07e-05 ± 1.8e-05 s⁻¹. On to A12G G13C, for which the “self-cleavage kobs at 10000 uM GlcN6P” value was determined as 2.18e-05 ± 1.1e-05 s⁻¹. Next, C68A U69A: 2.6e-05 ± 1.9e-05 s⁻¹; C16A U54G C58U: 3.4e-05 ± 1.9e-05 s⁻¹; G43U C70U: 1.87e-05 ± 9.7e-06 s⁻¹. With U30A A42U U55C, the “self-cleavage kobs at 10000 uM GlcN6P” value was 1.53e-05 ± 1.2e-05 s⁻¹. As for A53U C58G C67U, the “self-cleavage kobs at 10000 uM GlcN6P” value amounted to 2.13e-05 ± 2e-05 s⁻¹.

Consider C16U A48U C67G, for which the “self-cleavage kobs at 10000 uM GlcN6P” value came out at 2.58e-05 ± 2.2e-05 s⁻¹. Take C58U C67G C70U: the “self-cleavage kobs at 10000 uM GlcN6P” value turned out to be 2.24e-05 ± 1.5e-05 s⁻¹. As for G37A C50G C70G, the “self-cleavage kobs at 10000 uM GlcN6P” value was 2.06e-05 ± 1.9e-05 s⁻¹. Turning to A12G U47G G66U C68G, the “self-cleavage kobs at 10000 uM GlcN6P” value came out at 2.18e-05 ± 1.9e-05 s⁻¹. On to G38U C67A, for which the “self-cleavage kobs at 10000 uM GlcN6P” value was 1.54e-05 ± 1.5e-05 s⁻¹.

In the case of C11U A52U U56A U57G U65G C67U U69G, the “self-cleavage kobs at 10000 uM GlcN6P” value is 2.78e-05 ± 1.8e-05 s⁻¹. As to G32U U56A C61G C67A, the “self-cleavage kobs at 10000 uM GlcN6P” value was found to be 2.56e-05 ± 1.7e-05 s⁻¹. To G13U A52U belongs 1.46e-05 ± 8.1e-06 s⁻¹. Next, A14C U65A C67G U69A: 2.04e-05 ± 1.8e-05 s⁻¹. Take G26U U49A: the “self-cleavage kobs at 10000 uM GlcN6P” value turned out to be 2.46e-05 ± 1.7e-05 s⁻¹. Next, A15G A36C C68G: 3.23e-05 ± 2.4e-05 s⁻¹. To G44U A53G C67G belongs 0.149 ± 0.12 s⁻¹; to A33U G66A C68U, 2.49e-05 ± 1.5e-05 s⁻¹.

Consider U45G A48G, for which the “self-cleavage kobs at 10000 uM GlcN6P” value was determined as 2.39e-05 ± 1.5e-05 s⁻¹. Next, G32C C70G C71G: 2.82e-05 ± 2.5e-05 s⁻¹. Take A52G C67U C71G: the “self-cleavage kobs at 10000 uM GlcN6P” value came to 2.7e-05 ± 1.7e-05 s⁻¹. Take A52G U65G C70G: the “self-cleavage kobs at 10000 uM GlcN6P” value amounted to 3.14e-05 ± 2e-05 s⁻¹.

In the case of A12U U30C, the “self-cleavage kobs at 10000 uM GlcN6P” value worked out at 0.0347 ± 0.018 s⁻¹.

As to U49G A52G C67G, the “self-cleavage kobs at 10000 uM GlcN6P” value is 2.85e-05 ± 2.6e-05 s⁻¹.

In the case of G13C C61A C67G C68G, the “self-cleavage kobs at 10000 uM GlcN6P” value came to 2.98e-05 ± 1.5e-05 s⁻¹. Take U45G A48U G66U: the “self-cleavage kobs at 10000 uM GlcN6P” value turned out to be 3.48e-05 ± 2.1e-05 s⁻¹. As for C16G A42U, the “self-cleavage kobs at 10000 uM GlcN6P” value is 2.11e-05 ± 1.1e-05 s⁻¹. On to U49A A64G, for which the “self-cleavage kobs at 10000 uM GlcN6P” value is 1.69e-05 ± 1.3e-05 s⁻¹. To A39G C50G C58A belongs 2.85e-05 ± 1.9e-05 s⁻¹.

As to G43C C68G, the “self-cleavage kobs at 10000 uM GlcN6P” value was determined as 0.0695 ± 0.037 s⁻¹.

Regarding U47C C50A, the “self-cleavage kobs at 10000 uM GlcN6P” value worked out at 2.57e-05 ± 2e-05 s⁻¹. Regarding U47G G59C C70G, the “self-cleavage kobs at 10000 uM GlcN6P” value was 2.55e-05 ± 1.8e-05 s⁻¹. With C58G C67U, the “self-cleavage kobs at 10000 uM GlcN6P” value worked out at 2.3e-05 ± 1.7e-05 s⁻¹.

As to G44C U56C, the “self-cleavage kobs at 10000 uM GlcN6P” value is 1.87e-05 ± 1.2e-05 s⁻¹.

As to A36G C71U, the “self-cleavage kobs at 10000 uM GlcN6P” value was found to be 1.53e-05 ± 1.1e-05 s⁻¹. For the variant U30A U46G C68G, the “self-cleavage kobs at 10000 uM GlcN6P” value was found to be 3.35e-05 ± 2.2e-05 s⁻¹. As for A15C U69A, the “self-cleavage kobs at 10000 uM GlcN6P” value was determined as 3.67e-05 ± 2.1e-05 s⁻¹. As to C50G G51A U69G, the “self-cleavage kobs at 10000 uM GlcN6P” value amounted to 2.1e-05 ± 1.3e-05 s⁻¹. Next, C68U C71G: 1.07e-05 ± 8.7e-06 s⁻¹; A15G U49A: 1.19e-05 ± 1.1e-05 s⁻¹. Next, A14G C50A C68U: 2.2e-05 ± 2e-05 s⁻¹.

Turning to U47C G66U, the “self-cleavage kobs at 10000 uM GlcN6P” value came out at 2.12e-05 ± 1.4e-05 s⁻¹. To G13A C70G belongs 1.17e-05 ± 1.1e-05 s⁻¹; to A33U G66U, 1.03e-05 ± 9.8e-06 s⁻¹; to A14G U47A C50A, 2.16e-05 ± 1.2e-05 s⁻¹. Next, A48G U69A: 1.91e-05 ± 1.7e-05 s⁻¹.

Take G13U G29U U31C: the “self-cleavage kobs at 10000 uM GlcN6P” value is 1.6e-05 ± 1.4e-05 s⁻¹. To G37C G66A belongs 2.61e-05 ± 2.1e-05 s⁻¹; to G40C U57A, 2.58e-05 ± 1.4e-05 s⁻¹. For the variant C16A G29C C58U, the “self-cleavage kobs at 10000 uM GlcN6P” value turned out to be 1.86e-05 ± 1.1e-05 s⁻¹. For the variant U30C A53U C68G, the “self-cleavage kobs at 10000 uM GlcN6P” value is 2.36e-05 ± 1.5e-05 s⁻¹. For the variant G44A C67G C68G, the “self-cleavage kobs at 10000 uM GlcN6P” value stood at 2.93e-05 ± 1.8e-05 s⁻¹. To C58U U69G belongs 1.43e-05 ± 1.3e-05 s⁻¹. As to A53G C70A, the “self-cleavage kobs at 10000 uM GlcN6P” value was 0.00336 ± 0.0018 s⁻¹.

For U55C A64C, the “self-cleavage kobs at 10000 uM GlcN6P” value was determined as 1.54e-05 ± 8.8e-06 s⁻¹. Consider G29A A39U G43U, for which the “self-cleavage kobs at 10000 uM GlcN6P” value came out at 2.45e-05 ± 2.2e-05 s⁻¹.

Take G32U C68G: the “self-cleavage kobs at 10000 uM GlcN6P” value is 1.38e-05 ± 1.1e-05 s⁻¹. C50G C71A: the “self-cleavage kobs at 10000 uM GlcN6P” value was determined as 0.000603 ± 0.00033 s⁻¹. Consider U46G G59C U69A C70G, for which the “self-cleavage kobs at 10000 uM GlcN6P” value turned out to be 3.45e-05 ± 2e-05 s⁻¹.

C61U C71U: the “self-cleavage kobs at 10000 uM GlcN6P” value was 1.98e-05 ± 1.2e-05 s⁻¹.

In the case of G43A U65G, the “self-cleavage kobs at 10000 uM GlcN6P” value worked out at 2.14e-05 ± 1.8e-05 s⁻¹. As to A42G U69C, the “self-cleavage kobs at 10000 uM GlcN6P” value was 0.0629 ± 0.044 s⁻¹. To U46A C68G belongs 2.13e-05 ± 1.1e-05 s⁻¹; to C58A C68U U69G, 2.32e-05 ± 2e-05 s⁻¹. Next, G29U U31G C50G: 2.82e-05 ± 2.1e-05 s⁻¹. To A42G G44U C67G belongs 0.0401 ± 0.02 s⁻¹; to A15C A53U C70A, 2.95e-05 ± 2.1e-05 s⁻¹; to U30A A33U C58G U69C, 4.27e-05 ± 2.1e-05 s⁻¹. On to G37A G43U U55G, for which the “self-cleavage kobs at 10000 uM GlcN6P” value was 3.35e-05 ± 1.7e-05 s⁻¹.

C50A C58U U69C C70A: the “self-cleavage kobs at 10000 uM GlcN6P” value turned out to be 2.01e-05 ± 1.5e-05 s⁻¹.

As to U55A C68A, the “self-cleavage kobs at 10000 uM GlcN6P” value came to 0.000872 ± 0.00052 s⁻¹. Next, G43U A53C: 1.28e-05 ± 1e-05 s⁻¹. To U45C U65A belongs 3.14e-05 ± 1.6e-05 s⁻¹; to A39C U56A U57A, 1.91e-05 ± 1.5e-05 s⁻¹.

As for U56G U69G C71U, the “self-cleavage kobs at 10000 uM GlcN6P” value amounted to 2.67e-05 ± 1.9e-05 s⁻¹. Next, G32A U54A C68A: 2.76e-05 ± 2e-05 s⁻¹; U54A C67U C68A: 2.7e-05 ± 1.8e-05 s⁻¹; A20C: 0.0613 ± 0.035 s⁻¹. In the case of U45C A53C C70G, the “self-cleavage kobs at 10000 uM GlcN6P” value came to 1.61e-05 ± 1.5e-05 s⁻¹. To U47G C50A C67U belongs 2.15e-05 ± 1.8e-05 s⁻¹; to C11G U31G, 1.48e-05 ± 1.5e-05 s⁻¹; to A36G U54A, 2.03e-05 ± 2e-05 s⁻¹. To G43U C71U belongs 1.16e-05 ± 9.1e-06 s⁻¹. C11U U65G C68G: the “self-cleavage kobs at 10000 uM GlcN6P” value came out at 2e-05 ± 2e-05 s⁻¹. To U55A U57C C58U belongs 1.78e-05 ± 1.6e-05 s⁻¹.

The values are drawn from the supplement of paper PMC7125110.
